The test system of this experiment is NA Re-uptake. Briefly: NA re-uptake test ([3H]-norepinephrine, corpus striatum homogenate). Particulars: concentration 1 μg/ml. The format is biochemical, SD rats.

In the case of `CNCCC(Oc1ccc(C(F)(F)F)cc1)c1ccccc1` (stereo not shown) [Fluoxetine, reference compound], the Inhibitory rate is 22.9%.

For the origin of these results see patent US8148354B2, “Use of 20(S)-protopanaxadiol in manufacture of antidepressants” (priority 2006, dated 2012).
